In PMC7527347:
No constants are given. Whether binding was seen depends on the method and setting. In cells and extracts the contact can be indirect.

Amino acid sequences for entries named in this document (tags omitted). A change or cut given only in a name is not applied to a line headed by its entry. Residues count along the entry.
UniProt P19838, residues 1-433: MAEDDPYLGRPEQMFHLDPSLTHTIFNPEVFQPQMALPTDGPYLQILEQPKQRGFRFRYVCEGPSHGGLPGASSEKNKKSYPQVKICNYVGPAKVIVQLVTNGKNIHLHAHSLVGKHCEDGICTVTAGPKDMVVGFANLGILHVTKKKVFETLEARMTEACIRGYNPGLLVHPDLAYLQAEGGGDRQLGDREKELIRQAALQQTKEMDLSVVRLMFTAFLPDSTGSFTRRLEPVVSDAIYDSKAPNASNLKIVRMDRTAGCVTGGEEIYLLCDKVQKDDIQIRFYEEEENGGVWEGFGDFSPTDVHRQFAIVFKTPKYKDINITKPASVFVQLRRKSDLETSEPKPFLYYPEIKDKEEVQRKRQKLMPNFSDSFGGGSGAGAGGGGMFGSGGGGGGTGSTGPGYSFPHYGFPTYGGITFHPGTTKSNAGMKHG
UniProt Q04206: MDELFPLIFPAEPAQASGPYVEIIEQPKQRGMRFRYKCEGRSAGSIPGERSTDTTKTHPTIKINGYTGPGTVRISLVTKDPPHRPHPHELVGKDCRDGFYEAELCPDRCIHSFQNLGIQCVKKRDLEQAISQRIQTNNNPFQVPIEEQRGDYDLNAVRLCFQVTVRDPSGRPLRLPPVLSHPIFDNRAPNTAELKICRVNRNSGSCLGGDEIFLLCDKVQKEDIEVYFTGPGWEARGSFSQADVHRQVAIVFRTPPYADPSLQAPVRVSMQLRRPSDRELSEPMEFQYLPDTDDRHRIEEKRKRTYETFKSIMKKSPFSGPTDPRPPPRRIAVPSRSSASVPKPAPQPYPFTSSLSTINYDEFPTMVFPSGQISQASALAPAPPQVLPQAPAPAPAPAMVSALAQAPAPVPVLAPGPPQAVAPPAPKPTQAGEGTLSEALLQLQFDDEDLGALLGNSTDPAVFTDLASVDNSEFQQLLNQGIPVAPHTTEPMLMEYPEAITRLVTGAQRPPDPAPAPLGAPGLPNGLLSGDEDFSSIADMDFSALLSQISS
UniProt G5EFS1: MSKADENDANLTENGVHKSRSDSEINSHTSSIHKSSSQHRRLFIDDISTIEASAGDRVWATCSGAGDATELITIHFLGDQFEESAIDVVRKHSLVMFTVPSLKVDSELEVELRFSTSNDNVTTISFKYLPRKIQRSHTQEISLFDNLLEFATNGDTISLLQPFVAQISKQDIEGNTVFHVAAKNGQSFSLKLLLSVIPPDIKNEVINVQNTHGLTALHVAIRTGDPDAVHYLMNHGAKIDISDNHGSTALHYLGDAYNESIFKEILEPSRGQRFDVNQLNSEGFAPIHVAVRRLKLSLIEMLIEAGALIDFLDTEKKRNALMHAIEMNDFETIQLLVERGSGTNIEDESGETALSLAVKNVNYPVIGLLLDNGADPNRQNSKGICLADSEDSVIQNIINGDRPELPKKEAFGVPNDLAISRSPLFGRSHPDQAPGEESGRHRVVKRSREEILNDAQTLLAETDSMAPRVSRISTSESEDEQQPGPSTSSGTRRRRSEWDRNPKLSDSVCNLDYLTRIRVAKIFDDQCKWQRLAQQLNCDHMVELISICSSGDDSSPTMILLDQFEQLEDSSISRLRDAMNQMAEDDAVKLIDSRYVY

Key:
[1] = molecular target: NF-κB p50 (human (endogenous in HEK-293T)) (UniProt P19838); assay: co-IP; extracts from HEK-293T cells transfected with the HA-tagged proteins; association with p65/RelA and p50 read by Western blot
[2] = molecular target: NF-κB p65/RelA (human (endogenous in HEK-293T)) (UniProt Q04206); assay: as above

**Q.** For HA-tagged IKB-1 (from UniProt G5EFS1), which binding [1] is on record?
**A.** no binding

**Q.** And the binding [2]?
**A.** no binding
